Some of the results follow.
Key:
Experiment in all cases: protein microarray (ProtoArray v5.0), streptavidin-Alexa Fluor 647
Details in all cases: 3'-biotin; 20 mM Tris (pH 7.5), 5 mM MgCl2, 100 mM KCl, 0.1% Tween-20, A/T-rich and random oligonucleotide blockers; temperature not stated; high values mean tight binding
SNX19 (human) = system: SNX19 (human)
SNX24 (human) = system: SNX24 (human)
SNX4 (human) = system: SNX4 (human)
SOCS2 (human) = system: SOCS2 (human)
SOCS3 (human) = system: SOCS3 (human)
SOD1 (human) = system: SOD1 (human)
SORD (human) = system: SORD (human)
SP100 (human) = system: SP100 (human)
SPAG16 (human) = system: SPAG16 (human)
SPAG6 (human) = system: SPAG6 (human)
SPAG8 (human) = system: SPAG8 (human)
SPAG9 (human) = system: SPAG9 (human)
SPCS2 (human) = system: SPCS2 (human)
SPDEF (human) = system: SPDEF (human)
SPG20 (human) = system: SPG20 (human)
SPG21 (human) = system: SPG21 (human)
SPHK1 (human) = system: SPHK1 (human)
SPN (human) = system: SPN (human)
SPP1 (human) = system: SPP1 (human)
[1] = system: SPRY domain-containing protein 4 (human)

Sequence: GGGAGGCTGAGGCAGG [G4-1 biotinylated (PQS2)]
- binding signal (SNX19 (human)): -0.328 z-score
- binding signal (SNX24 (human)): -0.252 z-score
- binding signal (SNX4 (human)): -0.294 z-score
- binding signal (SOCS2 (human)): -0.281 z-score
- binding signal (SOCS3 (human)): -0.305 z-score
- binding signal (SOD1 (human)): -0.353 z-score
- binding signal (SORD (human)): -0.316 z-score
- binding signal (SP100 (human)): -0.329 z-score
- binding signal (SPAG16 (human)): -0.35 z-score
- binding signal (SPAG6 (human)): -0.332 z-score
- binding signal (SPAG8 (human)): -0.327 z-score
- binding signal (SPAG9 (human)): -0.334 z-score
- binding signal (SPCS2 (human)): -0.333 z-score
- binding signal (SPDEF (human)): -0.34 z-score
- binding signal (SPG20 (human)): -0.291 z-score
- binding signal (SPG21 (human)): -0.375 z-score
- binding signal (SPHK1 (human)): -0.348 z-score
- binding signal (SPN (human)): -0.34 z-score
- binding signal (SPP1 (human)): -0.305 z-score
- binding signal [1]: -0.293 z-score

— publication PMC5996148
